Laboratory results from patent US11511054B2, “Use of antistatic materials in the airway for thermal aerosol condensation process” (Alexza Pharmaceuticals, Inc., priority 2015, dated 2022).

Test: Effect of induction charging on airway housing deposition (ESD simulator, HPLC of housing extract)
Conditions: 15 LPM, mean ± SD
[1] = no applied potential to airway housing

SMILES | Aerosol Deposition on Housing [1] [% Loaded Dose] | Aerosol Deposition on Housing (+16 kV applied to airway housing) [% Loaded Dose] | Aerosol Deposition on Housing (−16 kV applied to airway housing) [% Loaded Dose]
CCN(C(C)=O)c1cccc(-c2ccnc3c(C#N)cnn23)c1 [Zaleplon] | 0 ± 0 | – | –
Cc1nnc2n1-c1ccc(Cl)cc1C(c1ccccc1)=NC2 [Alprazolam] | 12 ± 6 | 45 ± 6 | 12 ± 4
CN1CCN(CCCN2c3ccccc3Sc3ccc(Cl)cc32)CC1 [Prochlorperazine] | 3 ± 3 | – | –
